Values from PubChem BioAssay AID1259259 (Sanger Institute, 2017).
The deposit covers 794 reagents; this is a part drawn at random. In the full data, 9 (1.1%) were called active. 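Calls rest on knock-down alone, not drug synergy; viability values seem capped at 1.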 Further read-outs or replicates are left out here. No sequences are given here. Not given: the amount of reagent, the time to read-out.

Assay: 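Kinase silencing that lowers colorectal cancer cell viability alone or with drugs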 (primary screen)
Cell system: SW1463 human colorectal cancer cells
Reagent: siRNA pool against human genes
Treatment: DMSO vehicle, or one anchor drug: BYL719 at 1 µM, cetuximab at 5 µg/ml, or trametinib at 10 nM
Read-out: 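Viability as fraction of control pool 2 (non-targeting), replicate mean; knock-down robust z-score without any drug; synergy score averaged for each anchor drug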
Scale: robust z-score, knock-down alone: higher = more viable cells after knock-down; viability, knock-down alone: higher = more viable cells
Units: viability, knock-down alone in fraction of control
Rule for the call: 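a robust z-score under -3 for knock-down with no drug marks the gene as essential, meaning viability loss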
Meaning of the calls: active = essential: viability loss from knock-down alone; inactive = no change from knock-down alone

What is on record for STK16 (serine/threonine kinase 16)?
robust z-score, knock-down alone: 0.167; viability, knock-down alone: 0.938; outcome: inactive

For RPS6KA6 (ribosomal protein S6 kinase A6), how do the results read?
robust z-score, knock-down alone: -0.318; viability, knock-down alone: 0.907; outcome: inactive

How did the screen score EPHA1 (EPH receptor A1)?
robust z-score, knock-down alone: -0.299; viability, knock-down alone: 0.908; outcome: inactive

With CDK14 (cyclin dependent kinase 14), what was measured?
robust z-score, knock-down alone: -1.03; viability, knock-down alone: 0.861; outcome: inactive

For SRP72 (signal recognition particle 72), what does the deposit list?
robust z-score, knock-down alone: -0.416; viability, knock-down alone: 0.901; outcome: inactive

With PDGFRB (platelet derived growth factor receptor beta), what does the deposit list?
robust z-score, knock-down alone: -3.11; viability, knock-down alone: 0.728; outcome: active

With STK33 (serine/threonine kinase 33), what does the deposit list?
robust z-score, knock-down alone: -1.97; viability, knock-down alone: 0.801; outcome: inactive

Which result is listed for TSSK4 (testis specific serine kinase 4)?
robust z-score, knock-down alone: 1.13; viability, knock-down alone: 1; outcome: inactive

What did the screen give for MAPK8 (mitogen-activated protein kinase 8)?
robust z-score, knock-down alone: 0.589; viability, knock-down alone: 0.965; outcome: inactive

With EPHA5 (EPH receptor A5), what does the deposit list?
robust z-score, knock-down alone: 1.13; viability, knock-down alone: 1; outcome: inactive

What did the screen give for PIK3C2G?
robust z-score, knock-down alone: -0.749; viability, knock-down alone: 0.88; outcome: inactive

With DYRK1A, how do the results read?
robust z-score, knock-down alone: -0.479; viability, knock-down alone: 0.897; outcome: inactive

How did the screen score PRKCG (protein kinase C gamma)?
robust z-score, knock-down alone: -0.0785; viability, knock-down alone: 0.923; outcome: inactive

What did the screen give for PDK1 (pyruvate dehydrogenase kinase 1)?
robust z-score, knock-down alone: 0.659; viability, knock-down alone: 0.97; outcome: inactive

What did the screen give for STK17B (serine/threonine kinase 17b)?
robust z-score, knock-down alone: -1.06; viability, knock-down alone: 0.86; outcome: inactive

Which result is listed for IGF1R (insulin like growth factor 1 receptor)?
robust z-score, knock-down alone: 0.522; viability, knock-down alone: 0.961; outcome: inactive

With MAP3K1 (mitogen-activated protein kinase kinase kinase 1), what was measured?
robust z-score, knock-down alone: 0.184; viability, knock-down alone: 0.939; outcome: inactive

Which result is listed for DGKH (diacylglycerol kinase eta)?
robust z-score, knock-down alone: -0.188; viability, knock-down alone: 0.916; outcome: inactive

How did the screen score CAMKV (CaM kinase like vesicle associated)?
robust z-score, knock-down alone: -0.652; viability, knock-down alone: 0.886; outcome: inactive

What did the screen give for LMTK1 (lemur tail kinase 1)?
robust z-score, knock-down alone: -1.05; viability, knock-down alone: 0.86; outcome: inactive

With DCK (deoxycytidine kinase), how do the results read?
robust z-score, knock-down alone: -1.19; viability, knock-down alone: 0.851; outcome: inactive

How did the screen score PRKAB1 (protein kinase AMP-activated non-catalytic subunit beta 1)?
robust z-score, knock-down alone: -1.21; viability, knock-down alone: 0.85; outcome: inactive

What did the screen give for DYRK2 (dual specificity tyrosine phosphorylation regulated kinase 2)?
robust z-score, knock-down alone: 1.13; viability, knock-down alone: 1; outcome: inactive

For COQ8B (coenzyme Q8B), how do the results read?
robust z-score, knock-down alone: -0.425; viability, knock-down alone: 0.9; outcome: inactive

With EIF2AK3 (eukaryotic translation initiation factor 2 alpha kinase 3), what was measured?
robust z-score, knock-down alone: 0.392; viability, knock-down alone: 0.953; outcome: inactive

How did the screen score MAPKAPK5 (MAPK activated protein kinase 5)?
robust z-score, knock-down alone: 0.45; viability, knock-down alone: 0.957; outcome: inactive

For TWF1 (twinfilin actin binding protein 1), how do the results read?
robust z-score, knock-down alone: 0.533; viability, knock-down alone: 0.962; outcome: inactive

What is on record for DAPK3 (death associated protein kinase 3)?
robust z-score, knock-down alone: -0.241; viability, knock-down alone: 0.912; outcome: inactive

How did the screen score CHKA (choline kinase alpha)?
robust z-score, knock-down alone: 0.00612; viability, knock-down alone: 0.928; outcome: inactive

With NEK4 (NIMA related kinase 4), how do the results read?
robust z-score, knock-down alone: 1.13; viability, knock-down alone: 1; outcome: inactive

What did the screen give for ULK2 (unc-51 like autophagy activating kinase 2)?
robust z-score, knock-down alone: -1.31; viability, knock-down alone: 0.844; outcome: inactive

With CALM2 (calmodulin 2), what does the deposit list?
robust z-score, knock-down alone: 0.985; viability, knock-down alone: 0.991; outcome: inactive

For DDR2 (discoidin domain receptor tyrosine kinase 2), what does the deposit list?
robust z-score, knock-down alone: 0.422; viability, knock-down alone: 0.955; outcome: inactive

How did the screen score SKAP1 (src kinase associated phosphoprotein 1)?
robust z-score, knock-down alone: 1.13; viability, knock-down alone: 1; outcome: inactive

What is on record for MAST2 (microtubule associated serine/threonine kinase 2)?
robust z-score, knock-down alone: 0.222; viability, knock-down alone: 0.942; outcome: inactive

What did the screen give for RSKR (ribosomal protein S6 kinase related)?
robust z-score, knock-down alone: -0.552; viability, knock-down alone: 0.892; outcome: inactive

3 entries from above, sorted by “viability, knock-down alone”, lowest first:
STK17B (serine/threonine kinase 17b) — robust z-score, knock-down alone: -1.06; viability, knock-down alone: 0.86; outcome: inactive
PRKCG (protein kinase C gamma) — robust z-score, knock-down alone: -0.0785; viability, knock-down alone: 0.923; outcome: inactive
PDK1 (pyruvate dehydrogenase kinase 1) — robust z-score, knock-down alone: 0.659; viability, knock-down alone: 0.97; outcome: inactive
